Values of other authors, collected in patent US7265157B1, “Sustained release compositions, process for producing the same and use thereof” (Takeda Pharmaceutical Company Limited, priority 1999, dated 2007).
Some entries share one result that the patent states for a list of compounds.

Conditions: literature value

| Compound | pKa |
| --- | --- |
| O=C(O)c1cccc(O)c1 [m-hydroxybenzoic acid] | ≥ 4 |
| O=C(O)c1ccc(O)cc1 [p-hydroxybenzoic acid] | ≥ 4 |
